In EP3176583A2 (TLA Targeted Immunotherapies AB, dated 2017):
These are yes or no findings as the source states them, for the method shown. Some binding calls cover weakened binding; strength is not graded here.

The chains behind the UniProt entries cited, without tags or fusion partners. Residues count along the entry.
UniProt O15444, residues 24-97: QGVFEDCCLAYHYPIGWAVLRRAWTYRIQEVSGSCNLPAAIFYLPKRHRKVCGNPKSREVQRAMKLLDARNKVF

Target: T1, hCCR9 (human, UniProt P51686 1-369)
T1 sequence (looked up): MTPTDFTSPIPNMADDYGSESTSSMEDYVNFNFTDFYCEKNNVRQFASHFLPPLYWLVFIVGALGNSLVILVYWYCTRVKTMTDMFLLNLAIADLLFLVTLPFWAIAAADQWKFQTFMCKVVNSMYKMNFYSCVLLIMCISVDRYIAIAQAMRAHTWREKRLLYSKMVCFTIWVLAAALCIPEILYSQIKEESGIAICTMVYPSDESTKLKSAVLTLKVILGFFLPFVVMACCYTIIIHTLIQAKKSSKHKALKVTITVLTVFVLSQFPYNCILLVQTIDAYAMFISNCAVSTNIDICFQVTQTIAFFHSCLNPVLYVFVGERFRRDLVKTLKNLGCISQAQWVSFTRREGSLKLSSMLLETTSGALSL
Experiment: perfusion of blood cells over CCL25-coated streptavidin-sepharose beads, flow cytometry before and after

## Biotinylated CCL25 (Almac Sciences) (from UniProt O15444 24-97) (ligand)
  binding: binds
